Reference: patent publication US20100029683A1, “Methods for regulating cell mitosis by inhibiting serine/threonine phosphateses” (priority 2008, published 2010)
At least one structure is not confirmed: it was looked up by name or label, or the drawing left a doubt.

What was measured:
U87MG xenografts = experiment: U87MG s.c. xenografts in SCID mice, compound 102 with TMZ; type: in vivo; settings: compound 102 1.5 mg/kg i.p. days 1-3, 5-7, 9-11; TMZ 80 mg/kg days 4, 8, 12
Protocol: (§1) 5×10^6 U87MG cells were inoculated s.c. into each flank of 20 SCID mice. When the xenografts were 0.5±0.1 cm (day 0), 5 animals each received i.p. vehicle alone days 1-12 (50% DMSO/H2O); compound 102 alone at 1.5 mg/kg days 1-3,5-7, & 9-11; TMZ alone at 80 mg/kg days 4, 8, 12; or both drugs at the same doses and schedules. If xenografts reached 1800 mm^3, animals were sacrificed. […] B, Survival curve combining the data from the study shown in FIG. 12A, with a second identical study involving a total of 10 animals with two xenografts each. Disease-free survival was defined as no recurrence of either xenografts. […] As in 12A, except that xenografts of SH-SY5Y cells were implanted in one flank only and animals were treated with one additional cycle of drugs, i.e., compound 102 on days 13-15, TMZ, on day 16, and compound 102 plus TMZ on the same schedules. […] E, Western blots of U87 cells in culture 24 hours after exposure to compound 102 at 2.5 uM, TMZ at 25 uM or DOX at 2 uM, and compound 102 plus TMZ or DOX. F, Western blots of U373 cells 24 hours after exposure to compound 102 at 2.5 uM, doxorubicin at 2 uM, and both drugs. G, Western blots of U373 cells 24 hours after exposure to TMZ at 25 uM, okadaic acid at 2 nM, and both drugs. […]

SH-SY5Y xenografts = experiment: SH-SY5Y neuroblastoma s.c. xenografts in SCID mice, compound 102 with TMZ; type: in vivo; settings: as U87MG study plus one additional cycle of drugs; followed 7 weeks
Protocol: as §1

U87MG = experiment: Western blots of pAkt, p53 and MDM2 in U87MG cells after 24 hours; type: cell-based, human; settings: compound 102 2.5 uM, TMZ 25 uM, DOX 2 uM
Protocol: (§2) 5×10^6 U87MG cells were inoculated s.c. into each flank of 20 SCID mice. When the xenografts were 0.5±0.1 cm (day 0), 5 animals each received i.p. vehicle alone days 1-12 (50% DMSO/H2O); compound 102 alone at 1.5 mg/kg days 1-3,5-7, & 9-11; TMZ alone at 80 mg/kg days 4, 8, 12; or both drugs at the same doses and schedules. If xenografts reached 1800 mm^3, animals were sacrificed. […] B, Survival curve combining the data from the study shown in FIG. 12A, with a second identical study involving a total of 10 animals with two xenografts each. Disease-free survival was defined as no recurrence of either xenografts. […] As in 12A, except that xenografts of SH-SY5Y cells were implanted in one flank only and animals were treated with one additional cycle of drugs, i.e., compound 102 on days 13-15, TMZ, on day 16, and compound 102 plus TMZ on the same schedules. […] E, Western blots of U87 cells in culture 24 hours after exposure to compound 102 at 2.5 uM, TMZ at 25 uM or DOX at 2 uM, and compound 102 plus TMZ or DOX. F, Western blots of U373 cells 24 hours after exposure to compound 102 at 2.5 uM, doxorubicin at 2 uM, and both drugs. G, Western blots of U373 cells 24 hours after exposure to TMZ at 25 uM, okadaic acid at 2 nM, and both drugs.
The effects of compound 102, TMZ, doxorubicin (DOX), a widely used anti-cancer drug that disrupts DNA replication, compound 102 plus TMZ, and compound 102 plus DOX on the amount of pAkt, p53 and MDM2 in U87MG, a cell line with wild-type p53, and in U373, a cell line with mutant p53 (Short et al, 2007) were assessed by Western blots.

U373 cells [1] = experiment: Western blots of pAkt-1, p53 and MDM2 in U373 cells after 24 hours; type: cell-based, human; settings: U373 (mutant p53)
Protocol: as §2

U87MG cells = experiment: Cell cycle distribution of U87MG cells by FACS after 48 hours; type: cell-based, human
Protocol: (§3) Cells in unsynchronized logarithmic growth were exposed to vehicle or drug and adherent cells and cells in the media were collected. Harvested cells were fixed with 70% cold ethanol for 20 min at −20 degrees, washed with PBS, and stained with 10 ug/ml of PI and 1 ug/ml RNAse in TBS for 30 minutes and analyzed by FACS. A, Flow cytometry profiles of U87 cells after exposures to DMSO only, compound 102 only, 5 uM; TMZ only, 25 uM; compound 102 with TMZ combination, doxorubicin only, 2.0 uM and compound 102 with doxorubicin combination. B, Flow cytometry profiles of U373 cells.
(§4) We analyzed cell cycle patterns of U87MG and U373 cells 48 hours after exposure to TMZ or DOX alone and in combination with compound 102.

U373 cells [2] = experiment: Cell cycle distribution of U373 cells by FACS after 48 hours; type: cell-based, human; settings: U373, 48 hours
Protocol: as §3, §4

Cn1nnc2c(C(N)=O)ncn2c1=O [TMZ, temozolomide]
growth of GBM (U87MG) xenografts (U87MG xenografts): complete regression for 5 weeks but with regrowth of all xenografts
growth of NB (SH-SY5Y) xenografts (SH-SY5Y xenografts): less inhibitory than compound 102
MDM2 on Western blot (U87MG): little effect on MDM2
p53 on Western blot (U87MG): increased p53
pAkt-1 on Western blot (U87MG): decreased pAkt-1
molecular changes in pAkt-1, p53 and MDM2 compared with U87MG (U373 cells [1]): same molecular changes
G1 phase cells (U87MG cells): decreased the number of G1 phase cells
G2/M phase cells (U87MG cells): little effect on G2/M phase cells
S phase cells (U87MG cells): markedly increased S phase cells
G1 phase cells (U373 cells [2]): reduced G1 and G2/M
G2/M phase cells (U373 cells [2]): reduced G1 and G2/M
S phase cells (U373 cells [2]): greatly increased S
